Results are given in words; binding and its absence hold for the method and conditions named. Binding seen in cells or lysates may run through a third protein. Some binding calls cover weakened binding; strength is not graded here.
Target: estrogen receptor alpha (human (endogenous in MCF7)) (UniProt P03372)
Experiment: co-IP; endogenous proteins; pre-cleared MCF7 nuclear extracts, 5 ug ERα antibody or rabbit IgG control overnight, protein G agarose 2 h; washed in co-IP buffer (20 mM Tris pH 7.5, 150 mM NaCl, 1% NP40, 10% glycerol, 1 mM MgCl2); immunoblot

Chains of the proteins cited; added tags and fusions are not shown.
UniProt O75362: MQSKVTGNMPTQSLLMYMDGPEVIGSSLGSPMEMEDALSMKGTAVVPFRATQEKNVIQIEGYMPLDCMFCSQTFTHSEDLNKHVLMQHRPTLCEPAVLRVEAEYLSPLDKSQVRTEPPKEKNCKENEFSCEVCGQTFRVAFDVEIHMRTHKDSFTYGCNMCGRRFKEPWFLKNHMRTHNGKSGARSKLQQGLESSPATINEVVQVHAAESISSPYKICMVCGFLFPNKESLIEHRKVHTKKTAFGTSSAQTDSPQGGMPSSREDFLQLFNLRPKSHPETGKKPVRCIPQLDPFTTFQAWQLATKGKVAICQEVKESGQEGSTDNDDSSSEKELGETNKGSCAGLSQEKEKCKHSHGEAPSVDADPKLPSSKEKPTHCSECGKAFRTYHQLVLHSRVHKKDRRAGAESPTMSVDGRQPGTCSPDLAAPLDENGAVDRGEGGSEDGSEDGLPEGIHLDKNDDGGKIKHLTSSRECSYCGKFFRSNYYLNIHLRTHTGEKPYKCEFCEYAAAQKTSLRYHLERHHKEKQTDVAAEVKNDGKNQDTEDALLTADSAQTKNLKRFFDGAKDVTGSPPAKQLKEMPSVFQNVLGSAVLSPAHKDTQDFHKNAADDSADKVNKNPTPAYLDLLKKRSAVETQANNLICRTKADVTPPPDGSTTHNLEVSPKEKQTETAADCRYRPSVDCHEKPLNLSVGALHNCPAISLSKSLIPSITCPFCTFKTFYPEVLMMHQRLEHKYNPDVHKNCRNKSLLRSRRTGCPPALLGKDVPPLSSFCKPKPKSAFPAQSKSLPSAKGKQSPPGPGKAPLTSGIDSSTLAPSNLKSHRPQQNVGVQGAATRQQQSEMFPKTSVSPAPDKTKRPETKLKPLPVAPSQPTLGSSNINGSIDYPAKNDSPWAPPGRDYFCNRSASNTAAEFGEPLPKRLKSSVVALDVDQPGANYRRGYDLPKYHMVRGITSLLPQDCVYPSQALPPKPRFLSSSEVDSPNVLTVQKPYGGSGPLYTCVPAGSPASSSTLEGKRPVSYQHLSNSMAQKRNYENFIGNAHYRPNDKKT

| Substance | binding |
| --- | --- |
| zinc finger protein #217 (from UniProt O75362 1-1048) | binds |
| CtBP2 (from UniProt P56545 1-445) | binds |

— paper PMC4082627
